Assay results taken from PMC4006922.
Results are given in words; binding and its absence hold for the method and conditions named. In cells and extracts the contact can be indirect. Some results given as binding are weak or reduced against the parent protein; the word gives no strength.

By UniProt entry, the sequences of proteins in these tests, tags left out.
UniProt P27986: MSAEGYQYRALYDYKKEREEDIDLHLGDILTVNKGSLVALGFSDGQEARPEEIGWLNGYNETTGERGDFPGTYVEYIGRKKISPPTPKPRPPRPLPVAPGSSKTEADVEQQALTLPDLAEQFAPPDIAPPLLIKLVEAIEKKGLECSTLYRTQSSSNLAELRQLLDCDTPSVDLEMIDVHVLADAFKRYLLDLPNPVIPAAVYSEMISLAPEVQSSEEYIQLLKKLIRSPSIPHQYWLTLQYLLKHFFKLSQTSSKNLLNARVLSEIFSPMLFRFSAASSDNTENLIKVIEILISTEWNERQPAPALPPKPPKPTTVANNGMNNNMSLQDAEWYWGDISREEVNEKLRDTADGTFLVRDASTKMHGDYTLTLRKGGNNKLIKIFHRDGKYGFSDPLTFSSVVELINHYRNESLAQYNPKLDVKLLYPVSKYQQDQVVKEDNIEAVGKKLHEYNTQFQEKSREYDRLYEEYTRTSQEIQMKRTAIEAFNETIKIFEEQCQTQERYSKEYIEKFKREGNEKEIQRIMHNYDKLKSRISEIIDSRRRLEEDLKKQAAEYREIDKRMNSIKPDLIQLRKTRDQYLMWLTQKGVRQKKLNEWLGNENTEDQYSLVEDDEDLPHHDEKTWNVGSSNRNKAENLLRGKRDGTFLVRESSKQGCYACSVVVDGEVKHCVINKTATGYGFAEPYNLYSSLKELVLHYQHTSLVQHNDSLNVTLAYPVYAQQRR
UniProt O00459: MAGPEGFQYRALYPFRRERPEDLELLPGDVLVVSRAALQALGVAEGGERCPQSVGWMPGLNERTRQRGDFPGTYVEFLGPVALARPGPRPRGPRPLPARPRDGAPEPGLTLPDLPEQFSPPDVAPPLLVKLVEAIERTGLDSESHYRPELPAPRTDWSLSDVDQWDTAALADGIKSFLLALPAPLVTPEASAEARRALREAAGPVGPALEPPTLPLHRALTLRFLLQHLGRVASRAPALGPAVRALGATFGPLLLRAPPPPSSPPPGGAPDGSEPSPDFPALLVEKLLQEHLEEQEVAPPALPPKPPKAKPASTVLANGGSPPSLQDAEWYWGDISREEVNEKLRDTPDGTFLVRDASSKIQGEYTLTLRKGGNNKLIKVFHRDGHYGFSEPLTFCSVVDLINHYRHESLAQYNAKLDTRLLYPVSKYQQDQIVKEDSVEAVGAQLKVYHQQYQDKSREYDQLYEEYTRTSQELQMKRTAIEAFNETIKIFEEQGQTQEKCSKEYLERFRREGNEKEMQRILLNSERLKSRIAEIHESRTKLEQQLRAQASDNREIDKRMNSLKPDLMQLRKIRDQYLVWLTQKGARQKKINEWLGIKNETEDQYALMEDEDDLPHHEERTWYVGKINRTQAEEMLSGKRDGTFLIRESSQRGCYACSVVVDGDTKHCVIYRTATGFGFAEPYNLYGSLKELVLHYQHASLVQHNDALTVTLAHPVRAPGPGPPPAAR
UniProt P42336: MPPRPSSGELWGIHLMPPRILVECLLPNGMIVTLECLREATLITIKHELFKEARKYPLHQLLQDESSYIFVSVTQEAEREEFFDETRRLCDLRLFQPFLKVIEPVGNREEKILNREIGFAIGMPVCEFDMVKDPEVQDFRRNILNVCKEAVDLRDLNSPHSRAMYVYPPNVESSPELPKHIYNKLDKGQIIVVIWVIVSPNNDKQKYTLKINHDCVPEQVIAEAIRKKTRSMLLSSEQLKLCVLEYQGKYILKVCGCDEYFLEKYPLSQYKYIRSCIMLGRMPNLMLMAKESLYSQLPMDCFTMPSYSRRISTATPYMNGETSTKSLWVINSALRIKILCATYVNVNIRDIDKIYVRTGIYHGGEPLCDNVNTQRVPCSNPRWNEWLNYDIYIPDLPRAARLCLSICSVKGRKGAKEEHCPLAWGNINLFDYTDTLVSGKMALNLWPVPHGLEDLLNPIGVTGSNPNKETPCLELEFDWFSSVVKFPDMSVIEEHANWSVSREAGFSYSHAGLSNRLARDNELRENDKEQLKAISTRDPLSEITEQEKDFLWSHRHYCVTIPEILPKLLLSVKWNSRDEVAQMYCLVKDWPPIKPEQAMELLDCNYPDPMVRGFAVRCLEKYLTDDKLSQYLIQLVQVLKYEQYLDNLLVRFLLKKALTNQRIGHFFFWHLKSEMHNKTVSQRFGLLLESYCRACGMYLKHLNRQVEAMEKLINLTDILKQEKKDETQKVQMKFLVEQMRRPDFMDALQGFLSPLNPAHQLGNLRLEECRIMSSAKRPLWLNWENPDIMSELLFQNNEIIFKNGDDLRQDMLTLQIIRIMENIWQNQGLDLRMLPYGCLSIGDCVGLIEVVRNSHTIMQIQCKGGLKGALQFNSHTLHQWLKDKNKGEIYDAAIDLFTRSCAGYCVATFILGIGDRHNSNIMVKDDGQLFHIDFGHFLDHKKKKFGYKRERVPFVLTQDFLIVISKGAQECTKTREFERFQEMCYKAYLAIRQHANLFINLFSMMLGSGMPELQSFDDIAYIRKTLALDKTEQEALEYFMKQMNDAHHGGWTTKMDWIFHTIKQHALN

How the values were obtained:
[1] = biological target: PI3K regulatory subunit p85α (endogenous) (human (endogenous in HeLa and MCF10A)) (UniProt P27986); experiment: co-IP; lysates of vector, wtORF1, V125A and T123D MCF10A lines immunoprecipitated with p85α or p85β antibody; data not shown
[2] = biological target: PI3K regulatory subunit p85β (endogenous) (human (endogenous in HeLa and MCF10A)) (UniProt O00459); experiment: as above
[3] = biological target: PI3K catalytic subunit p110α (endogenous) (human (endogenous in MCF10A)) (UniProt P42336); experiment: co-IP; extracts (300 µg of protein, RIPA buffer) of stably transduced MCF10A lines (vector, wtORF1, V125A, T123D, KI) immunoprecipitated with p110α antibody on protein G-sepharose; immunoblot

Measured: binding

B1: wild-type (wt) Ad9 E4-ORF1 protein expressed in MCF10A cells (protein, UniProt P89079 1-125)
chain: MAESLYAFIDSPGGIAPVQEGTSNRYTFFCPESFHIPPHGVVLLHLKVSVLVPTGYQGRFMALNDYHARDILTQSDVIFAGRRQELTVLLFNHTDRFLYVRKGHPVGTLLLERVIFPSVKIATLV
binds: [1] | [2] | [3]
